Experimental data published in PMC4860827.
Results are given in words; binding and its absence hold for the method and conditions named. Some binding calls cover weakened binding; strength is not graded here.

Amino acid sequences for entries named in this document (tags omitted).
UniProt A6NHQ4: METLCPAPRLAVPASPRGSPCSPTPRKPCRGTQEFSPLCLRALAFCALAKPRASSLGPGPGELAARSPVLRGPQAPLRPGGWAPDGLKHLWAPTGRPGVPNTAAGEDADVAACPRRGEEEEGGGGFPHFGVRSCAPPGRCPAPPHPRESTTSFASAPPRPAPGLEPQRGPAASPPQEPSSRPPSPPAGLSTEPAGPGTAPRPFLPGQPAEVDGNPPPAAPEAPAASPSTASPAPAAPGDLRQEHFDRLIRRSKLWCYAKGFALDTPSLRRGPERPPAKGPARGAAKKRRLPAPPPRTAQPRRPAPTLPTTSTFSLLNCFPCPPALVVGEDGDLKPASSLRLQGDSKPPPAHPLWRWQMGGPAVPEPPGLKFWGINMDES

Target: PHF19 (human) (UniProt Q5T6S3)
Test: biochemical purification (co-purification); purification of PHF19; authors' earlier unpublished work, no details given

## C17orf96 (from UniProt A6NHQ4 1-379)
  binding: binds
